The values are deposited in ChEMBL (CHEMBL3988442, “University of Dundee, Small-Polar-MMV Screening Library” (2021)).

By UniProt entry, the sequences of proteins in these tests, tags left out. Residues count along the entry.
UniProt Q8IDJ8, 1-583: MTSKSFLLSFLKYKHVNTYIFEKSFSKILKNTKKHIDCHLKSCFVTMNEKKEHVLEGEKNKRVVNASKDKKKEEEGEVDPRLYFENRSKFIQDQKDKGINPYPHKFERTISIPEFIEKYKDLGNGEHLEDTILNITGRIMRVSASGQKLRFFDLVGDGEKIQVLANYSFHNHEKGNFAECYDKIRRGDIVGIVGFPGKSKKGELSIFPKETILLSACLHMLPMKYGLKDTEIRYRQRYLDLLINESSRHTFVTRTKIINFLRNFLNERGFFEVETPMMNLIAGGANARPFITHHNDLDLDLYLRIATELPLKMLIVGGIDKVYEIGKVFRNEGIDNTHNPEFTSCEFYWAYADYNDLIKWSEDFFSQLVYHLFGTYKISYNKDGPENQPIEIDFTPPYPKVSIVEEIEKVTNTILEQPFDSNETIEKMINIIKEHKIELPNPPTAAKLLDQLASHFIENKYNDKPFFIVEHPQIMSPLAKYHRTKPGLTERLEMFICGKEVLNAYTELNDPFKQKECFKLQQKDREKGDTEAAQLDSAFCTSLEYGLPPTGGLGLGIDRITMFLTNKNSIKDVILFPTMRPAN
UniProt I6X8D2, whole entry: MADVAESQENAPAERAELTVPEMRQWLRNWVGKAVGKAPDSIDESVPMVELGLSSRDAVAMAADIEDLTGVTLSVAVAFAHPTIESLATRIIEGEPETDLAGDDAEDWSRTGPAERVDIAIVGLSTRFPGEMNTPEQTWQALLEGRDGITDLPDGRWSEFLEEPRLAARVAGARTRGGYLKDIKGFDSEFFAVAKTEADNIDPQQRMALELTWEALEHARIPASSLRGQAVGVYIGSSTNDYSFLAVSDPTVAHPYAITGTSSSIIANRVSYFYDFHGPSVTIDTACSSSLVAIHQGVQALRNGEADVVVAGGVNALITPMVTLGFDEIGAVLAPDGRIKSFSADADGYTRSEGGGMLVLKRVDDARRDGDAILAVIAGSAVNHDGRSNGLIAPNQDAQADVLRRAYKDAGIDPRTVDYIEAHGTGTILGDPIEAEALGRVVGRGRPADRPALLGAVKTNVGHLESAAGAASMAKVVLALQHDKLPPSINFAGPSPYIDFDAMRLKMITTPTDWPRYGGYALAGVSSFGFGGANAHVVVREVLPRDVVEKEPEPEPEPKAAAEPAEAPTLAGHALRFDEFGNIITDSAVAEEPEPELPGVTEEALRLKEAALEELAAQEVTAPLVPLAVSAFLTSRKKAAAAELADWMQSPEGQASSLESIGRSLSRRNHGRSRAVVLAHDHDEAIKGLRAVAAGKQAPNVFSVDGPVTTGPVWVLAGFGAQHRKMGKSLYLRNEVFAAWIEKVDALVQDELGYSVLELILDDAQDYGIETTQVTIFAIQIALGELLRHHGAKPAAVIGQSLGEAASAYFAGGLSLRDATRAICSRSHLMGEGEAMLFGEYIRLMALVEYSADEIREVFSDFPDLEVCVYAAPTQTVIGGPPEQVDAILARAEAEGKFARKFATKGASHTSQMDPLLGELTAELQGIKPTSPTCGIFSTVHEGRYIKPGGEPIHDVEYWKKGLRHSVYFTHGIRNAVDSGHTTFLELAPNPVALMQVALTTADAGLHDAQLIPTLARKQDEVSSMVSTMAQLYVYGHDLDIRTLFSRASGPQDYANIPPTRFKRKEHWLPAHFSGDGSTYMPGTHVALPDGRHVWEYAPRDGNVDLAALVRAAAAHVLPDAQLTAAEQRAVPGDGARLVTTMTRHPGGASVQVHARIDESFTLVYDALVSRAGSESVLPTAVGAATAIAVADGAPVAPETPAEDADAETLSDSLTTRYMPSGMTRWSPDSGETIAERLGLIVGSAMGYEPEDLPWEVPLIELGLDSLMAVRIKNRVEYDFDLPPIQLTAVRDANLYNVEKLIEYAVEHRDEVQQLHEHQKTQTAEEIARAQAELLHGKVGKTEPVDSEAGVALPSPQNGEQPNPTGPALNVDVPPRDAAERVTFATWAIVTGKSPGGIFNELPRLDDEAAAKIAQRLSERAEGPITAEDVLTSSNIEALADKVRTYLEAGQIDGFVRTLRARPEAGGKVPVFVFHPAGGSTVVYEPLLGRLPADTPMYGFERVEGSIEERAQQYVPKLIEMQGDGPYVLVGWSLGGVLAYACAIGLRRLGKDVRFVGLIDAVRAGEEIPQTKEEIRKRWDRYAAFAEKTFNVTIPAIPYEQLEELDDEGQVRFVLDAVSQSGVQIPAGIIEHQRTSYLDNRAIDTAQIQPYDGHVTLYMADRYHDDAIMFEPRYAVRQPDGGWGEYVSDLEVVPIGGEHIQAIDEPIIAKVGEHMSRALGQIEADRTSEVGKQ
UniProt P9WFT3, whole entry: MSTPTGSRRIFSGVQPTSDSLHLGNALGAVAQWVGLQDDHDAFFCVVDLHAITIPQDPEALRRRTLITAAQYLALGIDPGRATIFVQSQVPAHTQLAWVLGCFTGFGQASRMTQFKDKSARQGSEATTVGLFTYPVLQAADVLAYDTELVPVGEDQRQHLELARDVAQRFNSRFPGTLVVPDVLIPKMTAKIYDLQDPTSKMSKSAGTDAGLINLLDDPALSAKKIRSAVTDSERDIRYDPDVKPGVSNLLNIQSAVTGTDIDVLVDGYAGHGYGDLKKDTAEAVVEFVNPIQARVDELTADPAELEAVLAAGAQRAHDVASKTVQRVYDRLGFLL
UniProt Q4DA54, 1-478: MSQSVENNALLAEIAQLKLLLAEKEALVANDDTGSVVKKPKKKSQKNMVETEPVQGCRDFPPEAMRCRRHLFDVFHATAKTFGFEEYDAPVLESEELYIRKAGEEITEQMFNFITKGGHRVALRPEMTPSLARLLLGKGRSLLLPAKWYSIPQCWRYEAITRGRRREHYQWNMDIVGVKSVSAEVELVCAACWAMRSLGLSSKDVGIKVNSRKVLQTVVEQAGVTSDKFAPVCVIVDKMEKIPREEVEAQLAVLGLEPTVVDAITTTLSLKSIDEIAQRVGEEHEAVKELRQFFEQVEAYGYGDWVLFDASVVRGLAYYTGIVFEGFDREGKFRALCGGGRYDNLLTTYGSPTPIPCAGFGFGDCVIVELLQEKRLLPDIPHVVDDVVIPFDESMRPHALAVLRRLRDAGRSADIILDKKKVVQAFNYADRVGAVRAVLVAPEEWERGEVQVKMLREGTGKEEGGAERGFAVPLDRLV

A: 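Lysine-tRNA ligase, Plasmodium falciparum 3D7 (UniProt Q8IDJ8). Enzyme assay of the cytosolic lysyl-tRNA synthetase in 384-well plates, read by luminescence. Tested at 30 µM. Higher reads as stronger inhibition, judged from the few compounds that gave an IC50. Size under these conditions: about 69,000 compounds, about 49 of them at 50% or above in at least one test.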
B: 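Polyketide synthase Pks13, Mycobacterium tuberculosis (UniProt I6X8D2). Enzyme assay of the thioesterase domain of polyketide synthase 13; the read-out is not stated. Tested at 30 µM. Higher reads as stronger inhibition (inferred from which compounds were picked for retests). Of about 67,000 compounds tested this way, about 300 (0.46%) reached 50% or more in at least one test.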
C: 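Tryptophan-tRNA ligase, Mycobacterium tuberculosis (UniProt P9WFT3). Enzyme assay of tryptophanyl-tRNA synthetase; the read-out is not stated. Concentration: 10 µM. Higher most likely means stronger inhibition; the record gives no direction and few retests gave an IC50. Size under these conditions: about 65,000 compounds, about 64 of them at 50% or above in at least one test.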
D: 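Enzyme assay of histidyl-tRNA synthetase; the read-out is not stated. Target: Histidine-tRNA ligase, Trypanosoma cruzi CL Brener (UniProt Q4DA54). Concentration: 30 µM. Higher reads as stronger inhibition (inferred: compounds with an IC50 in retests scored well above the rest). Of about 69,000 compounds tested this way, about 31 (0.045%) reached 50% or more in at least one test.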

Values are the deposited “Percent Effect”, in %.
The record does not define 0% and 100%; most values in the screen are far below 50% and negative numbers occur (in some assays of this library far below -100).
This is an unselected part of the compounds tested.
A dash means the value is not listed here; it may have been measured.

| # | structure | A | B | C | D |
|---|---|---|---|---|---|
| 1 | `COCC(=O)N1CCO[C@H]2[C@H](OC)CC[C@@H]21` | 3.178 | -21.04 | 0.959 | -0.5525 |
| 2 | `CC1c2ncc(COCC3CCOCC3)n2CCN1C(=O)c1ccoc1` (stereo unspecified) | 2.623 | -15.81 | -0.3526 | 3.743 |
| 3 | `CCCC(C)NCc1cccnc1N1CCN(c2ccccn2)CC1` (stereo unspecified) | 1.075 | -4.761 | 3.579 | 16.07 |
| 4 | `Cc1oncc1NS(=O)(=O)c1c[nH]c2ncccc12` | 0.811 | - | 2.457 | 2.128 |
| 5 | `N#Cc1ccsc1C(=O)N1CCCCC1Cn1cccn1` (stereo unspecified) | 2.026 | 23.67 | 10.78 | 4.865 |
| 6 | `COCCN1CCN(CC2CCCCO2)CC1` (stereo unspecified) | -7.777 | -16.8 | 2.245 | -5 |
| 7 | `CNC(=O)C1(N2CCC[C@H]2C(=O)NC2CC2)CCCCC1` | 4.66 | -33.63 | -4.142 | 13.86 |
| 8 | `CN(C)C(=O)c1cnc2n1CCN(Cc1cccnc1)C2` | -0.1343 | -6.817 | -1.72 | 6.863 |
| 9 | `CN(C)CCCN(CCC#N)C(=O)Nc1ccc2[nH]ccc2c1` | 3.498 | -28.82 | -3.488 | 1.149 |
| 10 | `CC(C)CCN1CCc2[nH]nc(C(=O)N3CC=CC3)c2C1` | 2.541 | -11.79 | -5.151 | 8.247 |
| 11 | `O=C([C@H]1C[C@H]2OCC[C@H]2N(Cc2ccccn2)C1)N1CCCCO1` | 2.06 | -14.56 | 1.251 | 16.67 |
| 12 | `Cc1noc(NC(=O)c2ccc(F)cc2)n1` | 1.852 | -7.856 | -4.891 | 2.89 |
| 13 | `CC(=O)N1CC(c2ccnc(Nc3nccs3)n2)C1` | 0.5936 | -4.709 | -0.3264 | 0.565 |
| 14 | `CN(C)[C@@H]1CCN(c2ncccn2)[C@H]1Cc1cccnc1` | 6.168 | -6.405 | 1.394 | 9.453 |
| 15 | `FC(F)(F)c1ccc(-c2noc3c2CN(CC2CCCO2)CC3)cc1` (stereo unspecified) | 6.058 | 11.18 | 6.849 | 11.39 |
| 16 | `CC(NC(=O)COCC(F)(F)F)c1nnc2n1CCCCC2` (stereo unspecified) | -0.899 | -15.54 | 0.4351 | 2.857 |
| 17 | `CNC(=O)CN([C@H]1C[C@H]2CCOC[C@H]2C1)S(=O)(=O)c1ccccc1` | 2.954 | -2.785 | - | -3.468 |
| 18 | `Cc1ccc(C(=O)N(Cc2ccc(F)cc2)C2CC2)c(=O)[nH]1` | 5.49 | -13.61 | -0.4461 | 5.946 |
| 19 | `CC(=O)N1CC(C(=O)N2CCCC(Cn3ccnc3C)C2)C1` (stereo unspecified) | -2.618 | -8.344 | -11.33 | 6.061 |
| 20 | `c1ccc2nc(N3CCCC3c3nnc4n3CCCCC4)cnc2c1` (stereo unspecified) | 5.408 | 2.068 | 1.328 | 15 |
| 21 | `CC[C@H]1CN2CC[C@H]1C[C@@H]2CNCc1ccc(OC(F)(F)F)cc1` | 4.684 | -45.07 | -0.8283 | 15.84 |
| 22 | `CC(C)CNC(=O)c1sccc1-n1cnnn1` | 5.181 | -16.99 | 0.9266 | 2.609 |
| 23 | `CCc1nc2c(s1)C(N(C)C(=O)c1cc[nH]n1)CCC2` (stereo unspecified) | -0.4559 | -23.29 | 7.028 | 1.667 |
| 24 | `Cc1cccc(-c2nc(CN3CCc4cncnc4C3)no2)c1` | 2.924 | 1.842 | 20.25 | 13.26 |
| 25 | `CCN1CC2(CC1=O)CN(Cc1ccc(C)o1)CCN(C(=O)C(C)C)C2` (stereo unspecified) | -1.465 | 9.921 | 0.6916 | -2.439 |
| 26 | `O=C(NCC1CCCO1)c1cc(Sc2ncccn2)ccn1` (stereo unspecified) | -1.421 | -5.16 | 7.039 | 4.663 |
| 27 | `Cc1cc(C(=O)N2CCCC(c3nccn3Cc3ccncc3)C2)no1` (stereo unspecified) | 3.003 | -10.7 | -2.391 | 0.5025 |
| 28 | `CCn1nc(C)c(CN2CCNCC2)c1C` | 0.5066 | -5.511 | 0.7772 | -0.8696 |
| 29 | `CNC(=O)C1Cn2ccnc2C2(CCN(C(=O)c3ccccn3)CC2)O1` (stereo unspecified) | 0.9913 | -23.19 | -8.923 | 2.186 |
| 30 | `O=C(NCC1CC1)C1CN(C(=O)c2ccncc2)CC12CCOCC2` (stereo unspecified) | 8.131 | -16.34 | -3.197 | 0 |
| 31 | `CCn1nc2c(cc1=O)CN(c1ncnc3ccsc13)CC2` | 14.45 | -8.818 | 3.039 | 8.333 |
| 32 | `Cc1nn(C)c2cnn(Cc3ccc(C(=O)NC4CC4)cc3)c12` | 5.347 | 13.33 | -2.957 | -2.212 |
| 33 | `CN1CCCN(c2nccc(-c3c[nH]c4ccc(Br)cc34)n2)CC1` | 4.206 | -2.621 | - | 10.17 |
| 34 | `CCN(C(=O)CCn1cccn1)C1CC1` | 3.354 | -14.3 | -1.397 | 1.685 |
| 35 | `COCCN1CCC2(CCCN(Cc3ccoc3)C2)C1=O` (stereo unspecified) | -3.1 | -40.02 | 4.478 | 3.365 |

Some entries from above, unchanged:

For CCn1nc(C)c(CN2CCNCC2)c1C the result was A: 0.5066%; B: -5.511%; C: 0.7772%; D: -0.8696%.
For O=C([C@H]1C[C@H]2OCC[C@H]2N(Cc2ccccn2)C1)N1CCCCO1 the result was A: 2.06%; B: -14.56%; C: 1.251%; D: 16.67%.
For CNC(=O)CN([C@H]1C[C@H]2CCOC[C@H]2C1)S(=O)(=O)c1ccccc1 the result was A: 2.954%; B: -2.785%; D: -3.468%.